{
  "source": "patent EP0403172A2",
  "about": "“Purified enzyme and process therefor” (OKLAHOMA STATE UNIVERSITY, priority 1989, dated 1990)",
  "biological_target": "T1, isopenicillin N epimerase (Streptomyces clavuligerus, UniProt P18549)",
  "T1 construct": "Approximately 250 g of frozen whole cells of S. clavuligerus were thawed and homogenated; made in house; host or cells: Streptomyces clavuligerus NRRL 18491 (native producer; the endogenous enzyme was purified from cell-free extract, not made recombinantly)",
  "T1 sequence (P18549 1-398)": "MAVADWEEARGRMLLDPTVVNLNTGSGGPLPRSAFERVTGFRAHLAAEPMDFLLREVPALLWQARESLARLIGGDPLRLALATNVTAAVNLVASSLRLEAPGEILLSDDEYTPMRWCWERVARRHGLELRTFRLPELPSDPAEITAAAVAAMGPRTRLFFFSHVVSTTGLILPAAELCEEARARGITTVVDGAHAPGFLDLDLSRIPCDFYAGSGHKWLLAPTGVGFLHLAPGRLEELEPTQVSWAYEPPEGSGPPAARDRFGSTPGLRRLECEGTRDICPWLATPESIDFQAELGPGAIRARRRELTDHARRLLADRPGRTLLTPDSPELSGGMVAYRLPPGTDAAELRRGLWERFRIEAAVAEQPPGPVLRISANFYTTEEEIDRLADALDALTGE",
  "experiment": "Epimerase activity assay (product formation from isopenicillin N / penicillin N, quantitated by HPLC after o-phthaldialdehyde derivatization)",
  "format": "biochemical",
  "conditions": "Table 4, compound at 1 mM",
  "experimental": "The epimerase activity was determined by the product formation using isopenicillin N and penicillin N as substrates. Formation of isopenicillin N and penicillin N was quantitated by HPLC. […] The reaction mixture was incubated at 37°C for 20 min. The reaction was terminated by placing the reaction vessel in boiling water for 10 min, immediately cooling the reaction mixture with ice, and then filtering the cold mixture through a 0.45 µm filter.\nThe derivatives were then analyzed by HPLC. The assay samples were prepared for HPLC as follows. The assay filtrate, obtained as described above, 20 µl was mixed with 5 µl of a derivatizing reagent consisting of 4 mg of o-phthaldialdehyde dissolved in 300 µl of methanol, 250 µl of 0.4 M sodium borate, pH 9.4, 390 µl of water and 60 µl of 1 M N-acetyl-L-cysteine, adjusted to pH 5-6 with sodium hydroxide. After a 2 min reaction time, 200 µl of 50 mM sodium acetate, pH 5.0, were added to the mixture and 50 µl aliquots were used for HPLC analysis.",
  "note": "At least one structure is not confirmed: it was looked up by name or label, or the drawing left a doubt.",
  "data": [
    {"smiles": "O=C(O)CCC(=O)C(=O)O", "note": "[α-Ketoglutarate]", "values": [
      {"measurement": "Activity", "result": 208, "unit": "µmol/min/mL"}
    ]}
  ]
}
